Test results as given in publication PMC13649115.
No constants are given. Whether binding was seen depends on the method and setting. Binding seen in cells or lysates may run through a third protein. Some entries that bind do so weakly or less than the wild type.

Molecular target: T1, MARCHF5 (human (endogenous in BC-3)) (UniProt Q9NX47)
T1 sequence: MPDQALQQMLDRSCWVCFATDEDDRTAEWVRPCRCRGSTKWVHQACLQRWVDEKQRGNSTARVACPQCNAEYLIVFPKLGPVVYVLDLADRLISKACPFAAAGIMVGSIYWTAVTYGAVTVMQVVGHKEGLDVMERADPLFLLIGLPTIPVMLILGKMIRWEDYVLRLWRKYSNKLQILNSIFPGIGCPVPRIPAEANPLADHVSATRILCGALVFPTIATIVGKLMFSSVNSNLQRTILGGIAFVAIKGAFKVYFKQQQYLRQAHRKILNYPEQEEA
Assay: co-IP; reciprocal co-IP of endogenous proteins from BC-3 cells; lysis in IP buffer (25 mM HEPES, 100 mM NaCl, 10 mM CaCl2, 5 mM MgCl2) with 1% digitonin; anti-NOXA, anti-MARCHF5 or rabbit IgG overnight at 4 C, Protein A/G magnetic beads; Western blot for MARCHF5 or NOXA

binding: binds
B1: NOXA (protein, UniProt Q13794 1-54)
chain: MPGKKARKNAQPSPARAPAELEVECATQLRRFGDKLNFRQKLLNLISKLFCSGT
